# Experimental data: US8314060B2, “Peptide conjugated anti-cancer prodrugs” (BioSight Ltd., priority 2000, dated 2012)
# Not every detail of the peptide structures is certain; ends, links or a residue may be inferred. No end group written: not given here.
# Tested on: Human melanoma cells (WW-94)
# Test: Tissue culture cell counting (cell coulter) after 72 hours, melanoma cells
# Assay type: cell-based
# Conditions: FIG. 4
# Method: Human melanoma cells (WW-94) were grown in 50% DMEM/50% F-12 medium supplemented with 10% fetal calf serum and antibiotics.
# To determine the biological activity of the drugs, HUVEC (normal cells) or melanoma (cancer) cells were seeded in 24-well dish at a concentration of 10,000-20,000 cells/well, and increasing concentrations of the prodrug 3-Peptide I-Chlorambucil (P-CAC) were added to the wells. As controls, either Cholorambucil or the peptide carrier was added under the same experimental conditions. After 72 hours the cells were washed with phosphate buffer saline (PBS), suspended with 0.5% EDTA/PBS, and counted using cell coulter (Electronics ZM). Cell viability was verified by trypan-blue staining and hemocytometer analysis. IC50 indicates the concentration of the drug measured at 50% of the cell death.
sequence,measurement,value
YGLLGIAGPPGPPLYKKIIKKLLQS [peptide carrier],toxicity to melanoma cells,not toxic
